Experimental data as given in patent publication US10792282B2, “Protein kinase C inhibitors and uses thereof” (Rigel Pharmaceuticals, Inc., priority 2013, dated 2020).
Some entries share one result that the patent states for a list of compounds. At least one compound was matched to its structure with a doubt left.

System: PKC mediated IL-2 production
Experiment: IL-2 ELISA, human primary T cell, anti CD3+CD28+ (whole cell functional assay)
Format: cell-based
Conditions: human primary T cells stimulated with αCD3 and αCD28, IL-2 by ELISA; read-out: EC50 (blocked IL-2 production)
Method: Human primary T cells were prepared as follows. Fresh PBMC's from All Cells (Cat # PB002) were re-suspended in RPMI (RPMI-1640 with L-Glutamine; Mediatech, Inc., Herndon Va., cat. #10-040-CM) with 10% FBS and seeded into flasks and incubated at 37° C. for 2 hours to allow the monocytes to adhere. The non-adherent cells were then centrifuged and re-suspended in RPMI medium containing 40 U/ml IL2 and seeded into a flask pre-coated with 1 μg/ml aCD3 and 5 ug/ml aCD28 (Anti-Human CD3, BD Pharmingen Catalog #555336, Anti-Human CD28, Beckman Coulter Catalog # IM1376). […]
Human primary T cells (100,000 cells per well) were pre-incubated with or without test compound in RPMI-1640 with L-Glutamine and 10% FBS for 1 hour at 37° C. […] Cells were incubated at 37° C. for 24 hours before 100 μL supernatants were harvested for quantification of IL-2 by ELISA using Human IL-2 Duoset ELISA Kit from R and D Systems, Cat. # DY202E. […]
Primary T cell stimulation and IL2 ELISA: Human primary T cells (100,000 cells per well) were pre-incubated with or without test compound in Yssel's medium for 1 hour at 37° C. […] Cells were incubated at 37° C. for 24 hours before 100 μL supernatants were harvested for quantification of IL-2 by ELISA using Human IL-2 Duoset ELISA Kit from R and D Systems, Cat. # DY202E.

SMILES | EC50
Cn1nnn(-c2cc(Nc3ncc(F)c(NC4CC5CCCN5C(C)(C)C4)n3)ccc2OC2COC2)c1=O (racemic) [Compound 38, 1-(5-(5-fluoro-4-(octahydro-5,5-dimethylindolizin-7-ylamino)pyrimidin-2-ylamino)-2-(oxetan-3-yloxy)phenyl)-4-methyl-1H-tetrazol-5(4H)-one] | < 10 µM
Cn1nnn(-c2cc(Nc3ncc(C#N)c(NC4CC5CCCN5C(C)(C)C4)n3)c(F)cc2C2CC2)c1=O (centres unmarked) [Compound 66, 4-((R/S,S/R)-Octahydro-5,5-dimethylindolizin-7-ylamino)-2-(4-cyclopropyl-2-fluoro-5-(4,5-dihydro-4-methyl-5-oxotetrazol-yl)phenylamino) pyrimidine-5-carbonitrile] | < 10 µM
